Reference: PubChem BioAssay AID540256 (National Center for Advancing Translational Sciences (NCATS), 2011)
Hit rate of the full screen: of about 300,000 compounds, about 3,700 (1.2%) were called active. Inconclusive results, whose numbers are uncertain, are shown with a selection of clear calls. Calls follow the shape of the full dose curve; tested in HEK293 cells. A potency beside an inconclusive call is a rough fit, not a confirmed value.

assay: qHTS for Inhibitors of binding or entry into cells for Lassa Virus; conditions: Lassa virus pseudotype entry inhibition, cell reporter; activity change, negative = inhibition: at 37.9 µM (top of the series) unless noted; also: nearly all actives have a fitted effect of over 50% in size
% is scaled to controls: 0 for no effect and ±100 for the full control effect; potency is read from the fitted curve at half-maximal effect.

| Compound | Potency | activity change, negative = inhibition |
| --- | --- | --- |
| COc1cccc2sc(Nc3nc(-c4cc5ccccc5oc4=O)cs3)nc12 | inconclusive: 5.62 µM [inhibitor, single point] | – |
| COCCN(C(=O)c1csnn1)C(C(=O)NC1CCCCC1)c1ccc(Cl)cc1 (stereo unspecified) | inconclusive: 35.5 µM [inhibitor, partial curve, poor fit] | – |
| COc1cc(CCC(=O)N2CCN(S(=O)(=O)c3ccc(C)c(C)c3)CC2)cc(OC)c1OC | inconclusive: 3.66 µM [inhibitor, partial curve, poor fit] | – |
| CSc1ccc(CN(C)C(=O)c2cc(S(=O)(=O)NCc3ccccc3)ccc2C)cc1 | inconclusive: 35.5 µM [inhibitor, single point] | – |
| Cc1cccc(C)c1NC(=O)Cn1cnc2c(=O)n(C)c(=O)n(C)c21 | – | inactive: -5.07% |
| Cc1cc(C(=O)N[C@H](c2ccccc2)[C@@]2(C)C[C@@H]2[C@@H](C)C(=O)Nc2ccc3ccccc3c2)no1 | inconclusive: 29.1 µM [inhibitor, single point] | – |
| CC(=O)c1cccc(Nc2ncnc3c2cnn3C)c1 | inconclusive: 35.5 µM [activator, single point] | – |
| O=C(NCCc1ccc(Cl)cc1)c1ccc(Cn2c(=O)[nH]c3ccccc3c2=O)cc1 | – | inactive: -8.06% [at 46.1 µM] |
| CCn1cc(C(=O)O)c(=O)c2cnc(N3CCN(C(=S)Nc4ccccc4)CC3)nc21 | inconclusive: 29.1 µM [inhibitor, single point] | – |
| CCOc1ccccc1NC(=O)Cc1csc(COc2cccc(C)c2)n1 | – | inactive: 4.68% [at 46.1 µM] |
| Cc1ccc(C(=O)Nc2ccc3c(c2)CCC3)o1 | inconclusive: 18.3 µM [inhibitor, single point] | – |
| CCC1(CCC(C)C)SC(N)=NC1=O (stereo unspecified) | inconclusive: 35.5 µM [activator, partial curve, poor fit] | – |
| CC1=NOC(=O)/C1=C/c1ccc(O)cc1 | – | inactive: 1.53% |
| Cc1ccc(C)n1-n1cnc2sc(-c3ccccc3)cc2c1=O | – | inactive: -28% |
| CCC(=O)N1CCc2cc(Br)cc(S(=O)(=O)N3CCC(C(=O)N(CC)CC)CC3)c21 | – | inactive: 1.16% [at 46.1 µM] |
| CCN(CC)CC(=O)Nc1ccc(C)cc1Br | inconclusive: 5.01 µM [activator, full curve, poor fit] | – |
| CNC(=S)N1C2CCC1CC(NC(=O)NC13CC4CC(CC(C4)C1)C3)C2 (stereo unspecified) | – | inactive: 9.72% |
| CCCC(=O)Oc1ccccc1C1SCc2cc(C)c(C)cc2CS1 | inconclusive: 35.5 µM [inhibitor, single point] | – |
| Cc1ccc(CNc2oc(-c3ccc(COc4ccc(Cl)cc4)o3)nc2C#N)cc1 | – | inactive: -7.13% [at 46.1 µM] |
| C/C(Cl)=C\Cn1c(N2CCCC2)nc2c1c(=O)n(C)c(=O)n2C | inconclusive: 1.12 µM [inhibitor, full curve, poor fit] | – |
| O=c1c2ccccc2nc(/C=C/c2c[nH]c3ccccc23)n1CCO | inconclusive: 1.26 µM [activator, single point] | – |
| CCSc1nc(=S)n(-c2ccccc2)c(C)c1C(C)=O | – | inactive: -1.33% |
| CCN(CC)S(=O)(=O)c1cc(NC(=O)CCCOc2ccc(C(C)=O)cc2)ccc1C | inconclusive: 35.5 µM [inhibitor, partial curve, poor fit] | – |
| Cc1ccsc1C(=O)Nc1nccs1 | inconclusive: 22.4 µM [activator, single point] | – |

| Compound | Potency | activity change, negative = inhibition |
| --- | --- | --- |
| CCn1cc(CNC(=O)c2cc(COc3ccc(F)cc3Cl)on2)cn1 | inconclusive: 2.24 µM [inhibitor, full curve] | – |
| O=C(CNC(=O)c1ccccc1)NCc1nc2ccccc2[nH]1 | – | inactive: -25.7% |
| CCOc1ccc(-c2[nH]ncc2-c2ccc(OC)c(OC)c2)c(O)c1 | inconclusive: 1.46 µM [inhibitor, full curve] | – |
| Cc1ccc(OCC(=O)Nc2ccc3c(c2)nc2n3CCOC2)cc1 | – | inactive: 2.56% |
| CC1=C(C(=O)NC2CC(C)(C)Cc3c2cnn3-c2ccc(C)cc2)OCCO1 (stereo unspecified) | inconclusive: 0.708 µM [inhibitor, full curve, poor fit] | – |
| COc1ccccc1NC(=O)C1=C(C)Nc2nc(-c3ccco3)nn2C1c1ccccc1 (stereo unspecified) | inconclusive: 10 µM [inhibitor, partial curve, poor fit] | – |
| NC(=S)N=Nc1c(O)n(Cc2ccc(Br)cc2)c2ccccc12 | inconclusive: 8.91 µM [inhibitor, partial curve, poor fit] | – |
| O=C(CCS(=O)(=O)c1ccccc1)N1CCN(c2ccccc2F)CC1 | inconclusive: 3.16 µM [activator, single point] | – |
| NC(=O)C1CCCN(C(=O)Nc2cccc3ccccc23)C1 (stereo unspecified) | – | inactive: 14.6% |
| COC(=O)c1[nH]c2c(c1C)C(=O)CC(c1cccc(OC)c1)C2 (stereo unspecified) | inconclusive: 10 µM [inhibitor, partial curve, poor fit] | – |
| Cc1cccc(NS(=O)(=O)c2ccc(C(=O)NCC(c3ccccc3)N(C)C)cc2)c1C (stereo unspecified) | inconclusive: 20 µM [inhibitor, single point] | – |
| Cc1ccc(/C=N\Nc2cn[nH]c(=O)c2Cl)cc1 | – | inactive: 10.7% |
| COC(=O)c1ccc(/C=C/C(=O)c2cccc(OC)c2)cc1 | – | inactive: 7.03% |
| CC(C)(CCc1ccccn1)C(=O)CCCc1ccccn1 | – | inactive: 0% [at 46.1 µM] |
| O=[N+]([O-])c1cc2oc3c(c2c(C=NCc2ccncc2)c1O)CCCC3 | – | inactive: 2.91% |
| CCn1c(=O)c2cc(C(=O)N3CCN(c4cccc(OC)c4)CC3)sc2c2ccccc21 | inconclusive: 3.55 µM [inhibitor, full curve] | – |
| COc1ccccc1CNC(=O)COC(=O)Cc1ccsc1 | inconclusive: 14.1 µM [activator, partial curve, poor fit] | – |
| COc1ccc(Cl)cc1Nc1nc2ccc(C(=O)c3ccccc3)cc2n2cnnc12 | inconclusive: 2 µM [inhibitor, full curve] | – |
| Cc1ccc(N=Cc2nc(-c3ccco3)oc2O)cc1 | inconclusive: 2.06 µM [activator, partial curve, poor fit] | – |
| O=C(NCc1ccc2c(c1)OCO2)C1COc2ccccc2O1 (stereo unspecified) | inconclusive: 2.82 µM [activator, partial curve, poor fit] | – |
| COc1cc(/C=C(\C#N)c2nc(-c3cc4ccccc4oc3=O)cs2)ccc1O | – | inactive: 4.67% |
| Cc1cc(C)c(C)c(S(=O)(=O)N2CCN(CC(=O)Nc3ccc([N+](=O)[O-])cc3)CC2)c1C | inconclusive: 2.82 µM [activator, single point] | – |
| CCOc1cc(N2CCOCC2)c(OCC)cc1NC1=NCCCCC1 | – | inactive: 4.35% |
| COC(=O)Cc1c(C)c2ccc(OCC(=O)c3ccc(OC)c(OC)c3)cc2oc1=O | – | inactive: -3.2% [at 46.1 µM] |

| Compound | Potency | activity change, negative = inhibition |
| --- | --- | --- |
| C=C(C)CSC1=C(C#N)C(c2ccsc2)CC(=O)N1 (stereo unspecified) | inconclusive: 23.1 µM [inhibitor, partial curve, poor fit] | – |
| CCOc1cc(N2CCOCC2)c(OCC)cc1NC(=O)COC(=O)c1c(CC)noc1C | inconclusive: 25.1 µM [activator, partial curve, poor fit] | – |
| Cc1ccc(NC(=O)Nc2ccc3c(c2)N(C)C(=O)CS3)nc1 | – | inactive: -20.1% |
| Cc1cccc(N=Cc2c(O)n(C)c(=O)n(C)c2=O)c1 | – | inactive: 12.6% |
| O=C(Nc1cccc(OCC(=O)N2CCOCC2)c1)c1cccc([N+](=O)[O-])c1 | – | inactive: 8.56% |
| O=C(Nc1ccc(F)c(Cl)c1)C1CCCC1 | – | inactive: -2.51% |
| Nn1c(SCC(=O)Nc2ccc3c(c2)OCCO3)nnc1-c1cccnc1 | – | inactive: 1.9% |
| CN(C)/C=N/C1=C(C#N)C(c2cccs2)c2ccc3ccccc3c2O1 (stereo unspecified) | inconclusive: 0.891 µM [inhibitor, full curve, poor fit] | – |
| COC(=O)c1sc(NC(=O)/C=C/c2ccc(C)cc2)nc1C | – | inactive: 6.35% |
| O=C(C1CCCO1)N1CCN(C(=S)Nc2ccc(F)c(Cl)c2)CC1 (stereo unspecified) | inconclusive: 12.6 µM [inhibitor, single point] | – |
| O=C(N=C1c2ccccc2CN1c1cccc(Cl)c1)c1cccnc1 | – | inactive: 12.3% |
| O=S(=O)(c1cc(Cl)cc(Cl)c1O)N1CCC2(CC1)OCCO2 | inconclusive: 3.98 µM [inhibitor, single point] | – |
| NS(=O)(=O)c1ccc(N=Nc2ccc(=O)[nH]c2O)cc1 | – | inactive: 11.1% |
| Cc1ccc2c(c1)C(c1ccccc1)N(C(=O)c1ccc(S(=O)(=O)N3CCCCC3)cc1)CC(=O)N2 (stereo unspecified) | inconclusive: 35.5 µM [inhibitor, single point] | – |
| O=C(CSc1nc2ccccc2o1)Nc1nc(-c2ccccc2)c(-c2ccccc2)s1 | inconclusive: 35.5 µM [inhibitor, single point] | – |
| c1ccc(COc2ccc(OCCCN3CCCC3)cc2)cc1 | inconclusive: 20 µM [inhibitor, single point] | – |
| Cc1ccc(-c2nnc(Nc3ccc4c(c3)OCO4)c3ccccc23)cc1S(=O)(=O)NC(C)C | inconclusive: 31.6 µM [inhibitor, single point] | – |
| COc1ccc(C(=O)N2CCCCCC2)cc1S(=O)(=O)N1CCOCC1 | – | inactive: 9.98% |
| COc1ccc(C(CNC(=O)c2cc3ccccc3cc2O)N2CCOCC2)cc1 (stereo unspecified) | inconclusive: 35.5 µM [inhibitor, single point] | – |
| CCN(CC)CCNCC1C(=O)O[C@@H]2C[C@@]3(C)CCC[C@H](C)C3=C[C@H]12 (stereo partly specified) | inconclusive: 5.62 µM [inhibitor, single point] | – |
| Cc1ccccc1NS(=O)(=O)c1cc(C(=O)Nc2ccccc2-c2ccccc2)ccc1Cl | inconclusive: 32.6 µM [inhibitor, single point] | – |
| CCOc1ccc2nc(SCC(=O)N3CCN(C(=O)c4ccco4)CC3)sc2c1 | inconclusive: 35.5 µM [inhibitor, partial curve, poor fit] | – |
| C(=N\N1CCOCC1)/c1cn(-c2ccccc2)nc1-c1ccccc1 | inconclusive: 35.5 µM [inhibitor, single point] | – |

3 entries from above, set out differently:
Compound,Potency,"activity change, negative = inhibition"
CN(C)/C=N/C1=C(C#N)C(c2cccs2)c2ccc3ccccc3c2O1 (stereo unspecified),"inconclusive: 0.891 µM [inhibitor, full curve, poor fit]",–
COC(=O)c1sc(NC(=O)/C=C/c2ccc(C)cc2)nc1C,–,inactive: 6.35%
O=C(C1CCCO1)N1CCN(C(=S)Nc2ccc(F)c(Cl)c2)CC1 (stereo unspecified),"inconclusive: 12.6 µM [inhibitor, single point]",–
